Reference: paper PMC7017048
No constants are given. Whether binding was seen depends on the method and setting. In cells and extracts the contact can be indirect. Some binding calls cover weakened binding; strength is not graded here. Where a sequence is shown, tags or fusion partners need not be part of it.

The chains behind the UniProt entries cited, without tags or fusion partners.
UniProt Q05128: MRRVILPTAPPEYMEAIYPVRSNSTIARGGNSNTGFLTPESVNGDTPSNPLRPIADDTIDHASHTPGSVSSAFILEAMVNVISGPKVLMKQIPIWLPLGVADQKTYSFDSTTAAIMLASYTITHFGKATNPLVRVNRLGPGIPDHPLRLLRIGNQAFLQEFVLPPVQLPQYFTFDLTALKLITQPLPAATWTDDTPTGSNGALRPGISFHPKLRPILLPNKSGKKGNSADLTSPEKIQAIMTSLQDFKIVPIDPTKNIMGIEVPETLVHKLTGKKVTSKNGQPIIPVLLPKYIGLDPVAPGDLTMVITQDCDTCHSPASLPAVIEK
UniProt Q05323: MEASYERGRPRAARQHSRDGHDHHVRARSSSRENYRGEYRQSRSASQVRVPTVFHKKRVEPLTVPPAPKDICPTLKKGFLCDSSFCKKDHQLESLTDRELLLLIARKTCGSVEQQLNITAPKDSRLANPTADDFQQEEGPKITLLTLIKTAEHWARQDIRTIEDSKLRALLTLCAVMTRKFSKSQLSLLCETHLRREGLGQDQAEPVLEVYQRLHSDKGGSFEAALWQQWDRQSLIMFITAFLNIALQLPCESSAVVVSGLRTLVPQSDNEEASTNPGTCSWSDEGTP
UniProt P18272: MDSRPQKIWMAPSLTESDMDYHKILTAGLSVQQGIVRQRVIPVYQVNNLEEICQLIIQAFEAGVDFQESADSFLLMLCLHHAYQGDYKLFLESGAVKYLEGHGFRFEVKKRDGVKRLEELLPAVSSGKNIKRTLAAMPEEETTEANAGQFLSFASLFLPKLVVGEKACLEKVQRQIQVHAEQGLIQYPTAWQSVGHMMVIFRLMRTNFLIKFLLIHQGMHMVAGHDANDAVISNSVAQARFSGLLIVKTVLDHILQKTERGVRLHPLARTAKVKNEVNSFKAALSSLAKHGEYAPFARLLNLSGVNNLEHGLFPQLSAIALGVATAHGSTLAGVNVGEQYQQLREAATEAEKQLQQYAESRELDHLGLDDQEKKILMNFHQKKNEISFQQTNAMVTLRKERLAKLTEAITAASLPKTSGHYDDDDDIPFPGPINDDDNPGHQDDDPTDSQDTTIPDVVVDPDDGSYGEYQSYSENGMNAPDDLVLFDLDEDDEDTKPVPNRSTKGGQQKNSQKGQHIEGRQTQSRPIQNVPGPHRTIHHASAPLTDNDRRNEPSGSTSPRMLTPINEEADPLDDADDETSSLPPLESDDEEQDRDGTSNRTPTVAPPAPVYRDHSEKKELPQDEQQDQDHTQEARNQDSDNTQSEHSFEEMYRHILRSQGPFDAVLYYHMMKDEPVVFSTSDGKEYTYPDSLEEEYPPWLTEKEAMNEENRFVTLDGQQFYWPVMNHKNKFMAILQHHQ

Target: T1, flag/HA-tagged nuclear RNA export factor 1 (NXF1), wildtype (UniProt Q9UBU9)
T1 sequence: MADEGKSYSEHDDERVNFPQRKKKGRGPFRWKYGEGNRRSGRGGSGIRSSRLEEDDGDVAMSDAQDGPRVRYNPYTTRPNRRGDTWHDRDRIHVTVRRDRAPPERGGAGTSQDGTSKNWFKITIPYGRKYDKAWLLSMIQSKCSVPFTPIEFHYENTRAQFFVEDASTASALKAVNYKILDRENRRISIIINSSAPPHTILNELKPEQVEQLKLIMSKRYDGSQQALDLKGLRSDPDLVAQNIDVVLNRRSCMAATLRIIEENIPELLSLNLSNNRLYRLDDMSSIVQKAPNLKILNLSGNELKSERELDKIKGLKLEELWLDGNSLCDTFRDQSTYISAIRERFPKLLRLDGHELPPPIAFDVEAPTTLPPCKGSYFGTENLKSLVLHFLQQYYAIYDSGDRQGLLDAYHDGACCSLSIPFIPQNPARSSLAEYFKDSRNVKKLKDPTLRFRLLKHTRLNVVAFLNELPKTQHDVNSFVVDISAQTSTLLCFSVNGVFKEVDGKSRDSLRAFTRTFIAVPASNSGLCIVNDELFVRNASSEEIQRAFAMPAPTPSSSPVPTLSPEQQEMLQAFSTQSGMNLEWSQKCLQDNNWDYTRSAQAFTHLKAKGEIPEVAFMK
Experiment: co-IP

| Substance | binding |
| --- | --- |
| Ebola virus matrix protein VP40 (from UniProt Q05128 1-326) | no binding |
| Ebola virus transcriptional activator viral protein 30 (VP30) (from UniProt Q05323 1-288) | no binding |
| Ebola virus (EBOV) nucleoprotein (NP) (from UniProt P18272 1-739) | binds |
